The text below walks through data of PubChem BioAssay AID192 (DTP/NCI, 2004).

The list shows only some results of the screen, not a fair sample: it gathers tests that were run many times, whatever their T/C, doses with no T/C, and many T/C values between a quarter and a half above the control. Further doses and runs are listed elsewhere. T/C is the treated group as % of the vehicle group. Some doses have a count of surviving animals in place of a T/C: the source holds a T/C of zero for them, seemingly a mark for toxic or unscored doses. Some survivor counts are full or nearly so, which does not show that the dose was tolerated: survival well below the control is almost never listed, so the zero probably covers shortened survival too. Counts of survivors are from the toxicity check (mostly the fifth day) where no day follows; animals may have died later. Schedule codes are those of the source, read here as Q, the interval in days (D) or hours (H), X, the number of doses. Some entries were tested several times; the results are listed from low to high. For survival time, this PubChem deposit counts one and a half times the control or more as active, and values a quarter to a half above the control carry no call in these data; other NCI protocols may use other cut-offs. Some T/C values are followed by the survivors on the day toxicity was checked, most often the fifth; where none is given, no animal had died by that day. Peptide text beside a SMILES is read from it. * marks the point of attachment. Cbz = O=C(OCc1ccccc1)*

The test system of this assay is BDF1 mice, B16 melanoma ip, median survival T/C. As to the kind of experiment: NCI In Vivo Anticancer Drug Screen. Data for tumor model B16 Melanoma (intraperitoneal) in B6D2F1 (BDF1) mice. Conditions: T/C endpoint: median survival time, higher T/C = longer survival. In outline: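 Tumor-bearing mice received test compound or vehicle. Survival or tumor size was then measured in both groups. The treated-group figure was divided by the control-group figure.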

[1] abbreviates: dose: 200.0 mg/kg/injection, schedule: Q01DX009 (ip), vehicle: saline with Tween-80.
Setting [2] is: dose: 400.0 mg/kg/injection, schedule: Q01DX009 (ip), vehicle: saline with Tween-80.
The mark [3] stands for this setting: dose: 100.0 mg/kg/injection, schedule: Q04DX003 (ip), vehicle: saline with Tween-80.
The mark [4] stands for this setting: dose: 200.0 mg/kg/injection, schedule: Q04DX003 (ip), vehicle: saline with Tween-80.
[5] abbreviates: dose: 12.5 mg/kg/injection, schedule: Q01DX009 (ip), vehicle: saline with Tween-80.
Where [6] appears, read: dose: 200.0 mg/kg/injection, schedule: Q01DX009 (ip), vehicle: Klucel (hydroxypropylcellulose) (HPC).
The mark [7] stands for this setting: dose: 400.0 mg/kg/injection, schedule: Q01DX009 (ip), vehicle: Klucel (hydroxypropylcellulose) (HPC).
Where [8] appears, read: dose: 100.0 mg/kg/injection, schedule: Q01DX009 (ip), vehicle: saline with Tween-80.
Where [9] appears, read: dose: 100.0 mg/kg/injection, schedule: Q01DX009 (ip), vehicle: saline.

Regarding `O=C(NC(Cc1ccccc1)C(=O)NC(CO)C(=O)O)OCc1ccccc1` (stereo not drawn) (Cbz-Phe-Ser-OH; configuration not given here), the survivor count is 10 of 10 under setting [1] and 9 of 10 under setting [2].

`COc1ccc(NC2=CC(C)(C(=O)O)OC2=O)cc1` (stereo not given): the survivor count is 10 of 10 under setting [3]; 10 of 10 under setting [4]; 10 of 10 (dose: 400.0 mg/kg/injection, schedule: Q04DX003 (ip), vehicle: saline with Tween-80).

Take `O=C(Nc1ccc(NC2=NCCN2)cc1)c1cccc(C(=O)Nc2ccc(NC3=NCCN3)cc2)c1`: the survivor count (dose: 30.0 mg/kg/injection, schedule: Q01DX009 (ip), vehicle: saline with Tween-80) is listed as 8 of 10.

Regarding `C=CC(=O)N1CN(C(=O)C=C)CN(C(=O)C=C)C1`, the T/C was 131 % of control (dose: 6.25 mg/kg/injection, schedule: Q01DX009 (ip), vehicle: saline with Tween-80) and 126 % of control [9 of 10 alive] under setting [5]. Besides, the survivor count (dose: 25.0 mg/kg/injection, schedule: Q01DX009 (ip), vehicle: saline with Tween-80) is recorded as 0 of 10.

As for `COc1cccc2c1C(=O)c1c(O)c3c(c(O)c1C2=O)C[C@@](O)(C(C)O)C[C@@H]3OC1CC(N2CCOCC2C#N)C(O)C(C)O1` (stereo not given in full), the survivor count reads like this: (dose: 2.5 mg/kg/injection, schedule: Q01DX001 (ip), vehicle: water) 0 of 10; (dose: 5.0 mg/kg/injection, schedule: Q01DX001 (ip), vehicle: water) 0 of 10; (dose: 10.0 mg/kg/injection, schedule: Q01DX001 (ip), vehicle: water) 0 of 10; (dose: 20.0 mg/kg/injection, schedule: Q01DX001 (ip), vehicle: water) 0 of 10; (dose: 40.0 mg/kg/injection, schedule: Q01DX001 (ip), vehicle: water) 0 of 10; (dose: 150.0 micrograms/kg/injection, schedule: Q01DX001 (ip), vehicle: water) 3 of 10. Moreover, the T/C runs as follows: (dose: 18.75 micrograms/kg/injection, schedule: Q01DX001 (ip), vehicle: water) 125 and 127 % of control; (dose: 37.5 micrograms/kg/injection, schedule: Q01DX001 (ip), vehicle: water) 140 % of control; (dose: 75.0 micrograms/kg/injection, schedule: Q01DX001 (ip), vehicle: water) 128 [9 of 10 alive] and 132 % of control.

With `Cn1c2ccccc2c(=O)c2ccc(Cl)cc21`, the survivor count under setting [6] is recorded as 10 of 10 and the survivor count under setting [7] is 10 of 10.

Take `O=C(N/N=C/c1ccc(N(CCCl)CCCl)cc1)c1ccc(C(=O)N/N=C/c2ccc(N(CCCl)CCCl)cc2)cc1`: the survivor count is, setting by setting: (dose: 25.0 mg/kg/injection, schedule: Q04DX003 (ip), vehicle: Klucel (hydroxypropylcellulose) (HPC)) 9 of 10; (dose: 100.0 mg/kg/injection, schedule: Q04DX003 (ip), vehicle: Klucel (hydroxypropylcellulose) (HPC)) 5 of 10.

For `Nc1ccc(S(=O)(=O)c2ccc(N)cc2)cc1`, the survivor count is recorded as 5 of 10 under setting [1] and 2 of 10 under setting [2].

In the case of `COc1ccccc1NC(=O)Nc1cccc(Cl)c1`, the survivor count is, setting by setting: under setting [8], 10 of 10; under setting [1], 10 of 10; under setting [2], 10 of 10.

As for `CCCCCCCCCC(=O)OCCN1CCN(CCCN2c3ccccc3Sc3ccc(C(F)(F)F)cc32)CC1`, where the note is “dose: 0.78 mg/kg/injection, schedule: Q01DX009 (ip), vehicle: alcohol”, the T/C was 129 % of control. Also, where the note is “dose: 1.56 mg/kg/injection, schedule: Q01DX009 (ip), vehicle: alcohol”, the survivor count is given as 10 of 10.

As to `C/C=C/C(=O)OCC1CCN(C)C1` (stereo not given), the survivor count is given as 5 of 8 (dose: 400.0 mg/kg/injection, schedule: Q01DX009 (ip), vehicle: water) and 0 of 8 (dose: 800.0 mg/kg/injection, schedule: Q01DX009 (ip), vehicle: water).

As for `O=C(O)C1CCCCC1C(=O)Nc1ccc(F)cc1` (stereo not given), the survivor count was 8 of 10 under setting [1] and 10 of 10 under setting [2].

Turning to `CCCCC[C@H](O)/C=C/[C@H]1[C@H](O)CC(=O)[C@@H]1C/C=C\CCCC(=O)O`, the survivor count runs as follows: (dose: 12.0 mg/kg/injection, schedule: Q04DX002 (ip), vehicle: Klucel (hydroxypropylcellulose) (HPC)) 3 of 3; (dose: 50.0 mg/kg/injection, schedule: Q04DX002 (ip), vehicle: other) 3 of 3; (dose: 400.0 mg/kg/injection, schedule: Q04DX002 (ip), vehicle: other) 3 of 3.

Take `Clc1ccc2nc(CI)c(CI)nc2c1`: the survivor count runs as follows: under setting [5], 10 of 10; (dose: 50.0 mg/kg/injection, schedule: Q01DX009 (ip), vehicle: saline with Tween-80) 9 of 10; under setting [8], 6 of 10; under setting [3], 5 of 10; under setting [4], 0 of 10.

Turning to `CCCCCCCCCCCC[N+](C)(C)Cc1ccccc1`, the survivor count (dose: 1.0 mg/kg/injection, schedule: Q01DX009 (ip), vehicle: saline with Tween-80) was 10 of 10; the survivor count (dose: 1.0 mg/kg/injection, schedule: Q01DX009 (ip), vehicle: saline) was 10 of 10; the survivor count (dose: 1.0 mg/kg/injection, schedule: Q04DX003 (ip), vehicle: saline) is on record as 9 of 10; the survivor count (dose: 2.0 mg/kg/injection, schedule: Q01DX009 (ip), vehicle: saline) is listed as 7 of 10; the survivor count (dose: 2.0 mg/kg/injection, schedule: Q04DX003 (ip), vehicle: saline) was 10 of 10; the survivor count (dose: 4.0 mg/kg/injection, schedule: Q01DX009 (ip), vehicle: saline with Tween-80) is 6 of 10. The survivor count is 10 of 10 (dose: 4.0 mg/kg/injection, schedule: Q04DX003 (ip), vehicle: saline); 4 of 10 (dose: 8.0 mg/kg/injection, schedule: Q01DX009 (ip), vehicle: saline with Tween-80); 1 of 10 (dose: 8.0 mg/kg/injection, schedule: Q01DX009 (ip), vehicle: saline); 8 of 10 (dose: 8.0 mg/kg/injection, schedule: Q04DX003 (ip), vehicle: saline with Tween-80); 7 of 10 and 10 of 10 (dose: 8.0 mg/kg/injection, schedule: Q04DX003 (ip), vehicle: saline); 2 of 10 (dose: 16.0 mg/kg/injection, schedule: Q04DX003 (ip), vehicle: saline with Tween-80).

`CC(C)NNC(=O)C(C)O` (stereo not given): the survivor count runs as follows: under setting [9], 8 of 10; (dose: 400.0 mg/kg/injection, schedule: Q01DX009 (ip), vehicle: saline) 10 of 10.

For `O=C(Nc1cccc(C(F)(F)F)c1)Nc1nccs1`, under setting [7], the survivor count is 2 of 10.

As for `OC12CCC[N+]1(Cc1ccccc1)CCC2` (stereo not given), the survivor count under setting [9] is reported as 4 of 6.

Consider `OCC1OC(n2cnc3cncnc32)C(O)C1O` (stereo not given), for which the T/C runs as follows: (dose: 0.78 mg/kg/injection, schedule: Q01DX009 (ip), vehicle: saline) 126 % of control; (dose: 1.56 mg/kg/injection, schedule: Q01DX009 (ip), vehicle: saline) 127 % of control; (dose: 3.12 mg/kg/injection, schedule: Q01DX009 (ip), vehicle: saline) 133 % of control; (dose: 12.5 mg/kg/injection, schedule: Q01DX009 (ip), vehicle: saline) 135 % of control. For the same compound, the survivor count by setting is: (dose: 25.0 mg/kg/injection, schedule: Q01DX009 (ip), vehicle: saline) 10 of 10; (dose: 50.0 mg/kg/injection, schedule: Q01DX009 (ip), vehicle: saline) 10 of 10.

With `COC(=O)C1CC(C)(C)N(C)C1(C)C` (stereo not given), the survivor count under setting [6] is given as 5 of 10.

On to `OCC1OC(n2cnc3c(=S)nc[nH]c32)CC1O` (stereo not given), for which the survivor count under setting [6] is on record as 10 of 10.
